Measured values from patent US20190256592A1.
No constants are given. Whether binding was seen depends on the method and setting. Some results given as binding are weak or reduced against the parent protein; the word gives no strength.

Target: T1, Cleft Lip and Palate Transmembrane protein 1 (CLPTM1), human, native, in cells (human) (UniProt O96005)
T1 sequence: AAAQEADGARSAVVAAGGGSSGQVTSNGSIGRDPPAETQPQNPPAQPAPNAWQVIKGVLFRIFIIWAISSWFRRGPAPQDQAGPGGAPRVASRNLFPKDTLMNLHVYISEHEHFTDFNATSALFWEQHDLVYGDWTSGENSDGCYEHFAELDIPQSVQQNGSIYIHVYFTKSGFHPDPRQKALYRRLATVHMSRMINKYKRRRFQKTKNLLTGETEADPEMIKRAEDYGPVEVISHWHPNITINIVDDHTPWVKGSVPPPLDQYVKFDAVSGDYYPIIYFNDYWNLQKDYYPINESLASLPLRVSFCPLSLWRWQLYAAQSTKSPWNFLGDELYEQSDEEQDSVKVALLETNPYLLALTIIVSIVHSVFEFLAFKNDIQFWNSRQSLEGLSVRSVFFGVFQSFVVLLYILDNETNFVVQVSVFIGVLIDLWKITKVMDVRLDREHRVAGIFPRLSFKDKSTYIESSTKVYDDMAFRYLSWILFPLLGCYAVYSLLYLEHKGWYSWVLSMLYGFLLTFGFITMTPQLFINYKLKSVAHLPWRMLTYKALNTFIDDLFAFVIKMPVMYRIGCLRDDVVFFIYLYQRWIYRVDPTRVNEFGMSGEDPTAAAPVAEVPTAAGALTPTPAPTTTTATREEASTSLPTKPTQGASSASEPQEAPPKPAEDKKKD
Test: flow cytometry on membrane-permeabilised O-876 cells expressing native CLPTM1, 10x dilution series, PE-labelled secondary antibody

binding: binds
B1: Mouse monoclonal anti-CLPTM1 antibody 7G12 (antibody, V domains shown)
VH: QVQLQQSGTELVRPGTSVKVSCKASGYAFTNYLIEWVKQRPGQGLEWIGVINPGSGGTRYNEKFKGKATLTADKSSTTAHMQLSSLTSDDSAVYCARWGGNYSGYAMDYWGQGTSVTVSS
VL: QIVLTQSPVIMSASPGEKVTITCSASSSVSYMHWFQQKPGTSPKLWIYSTSNLASGVPARFSGSGSGTSYSLTISRMEAEDAATYYCQQRSSYPPTFGAGTKL
